Results from the supplement of paper PMC10849652.
The other results are listed elsewhere or left out.

Chains of the proteins cited; added tags and fusions are not shown. Lines headed by an entry give the natural chain unless they say otherwise; changes in a name come on top.
UniProt Q9BYW2: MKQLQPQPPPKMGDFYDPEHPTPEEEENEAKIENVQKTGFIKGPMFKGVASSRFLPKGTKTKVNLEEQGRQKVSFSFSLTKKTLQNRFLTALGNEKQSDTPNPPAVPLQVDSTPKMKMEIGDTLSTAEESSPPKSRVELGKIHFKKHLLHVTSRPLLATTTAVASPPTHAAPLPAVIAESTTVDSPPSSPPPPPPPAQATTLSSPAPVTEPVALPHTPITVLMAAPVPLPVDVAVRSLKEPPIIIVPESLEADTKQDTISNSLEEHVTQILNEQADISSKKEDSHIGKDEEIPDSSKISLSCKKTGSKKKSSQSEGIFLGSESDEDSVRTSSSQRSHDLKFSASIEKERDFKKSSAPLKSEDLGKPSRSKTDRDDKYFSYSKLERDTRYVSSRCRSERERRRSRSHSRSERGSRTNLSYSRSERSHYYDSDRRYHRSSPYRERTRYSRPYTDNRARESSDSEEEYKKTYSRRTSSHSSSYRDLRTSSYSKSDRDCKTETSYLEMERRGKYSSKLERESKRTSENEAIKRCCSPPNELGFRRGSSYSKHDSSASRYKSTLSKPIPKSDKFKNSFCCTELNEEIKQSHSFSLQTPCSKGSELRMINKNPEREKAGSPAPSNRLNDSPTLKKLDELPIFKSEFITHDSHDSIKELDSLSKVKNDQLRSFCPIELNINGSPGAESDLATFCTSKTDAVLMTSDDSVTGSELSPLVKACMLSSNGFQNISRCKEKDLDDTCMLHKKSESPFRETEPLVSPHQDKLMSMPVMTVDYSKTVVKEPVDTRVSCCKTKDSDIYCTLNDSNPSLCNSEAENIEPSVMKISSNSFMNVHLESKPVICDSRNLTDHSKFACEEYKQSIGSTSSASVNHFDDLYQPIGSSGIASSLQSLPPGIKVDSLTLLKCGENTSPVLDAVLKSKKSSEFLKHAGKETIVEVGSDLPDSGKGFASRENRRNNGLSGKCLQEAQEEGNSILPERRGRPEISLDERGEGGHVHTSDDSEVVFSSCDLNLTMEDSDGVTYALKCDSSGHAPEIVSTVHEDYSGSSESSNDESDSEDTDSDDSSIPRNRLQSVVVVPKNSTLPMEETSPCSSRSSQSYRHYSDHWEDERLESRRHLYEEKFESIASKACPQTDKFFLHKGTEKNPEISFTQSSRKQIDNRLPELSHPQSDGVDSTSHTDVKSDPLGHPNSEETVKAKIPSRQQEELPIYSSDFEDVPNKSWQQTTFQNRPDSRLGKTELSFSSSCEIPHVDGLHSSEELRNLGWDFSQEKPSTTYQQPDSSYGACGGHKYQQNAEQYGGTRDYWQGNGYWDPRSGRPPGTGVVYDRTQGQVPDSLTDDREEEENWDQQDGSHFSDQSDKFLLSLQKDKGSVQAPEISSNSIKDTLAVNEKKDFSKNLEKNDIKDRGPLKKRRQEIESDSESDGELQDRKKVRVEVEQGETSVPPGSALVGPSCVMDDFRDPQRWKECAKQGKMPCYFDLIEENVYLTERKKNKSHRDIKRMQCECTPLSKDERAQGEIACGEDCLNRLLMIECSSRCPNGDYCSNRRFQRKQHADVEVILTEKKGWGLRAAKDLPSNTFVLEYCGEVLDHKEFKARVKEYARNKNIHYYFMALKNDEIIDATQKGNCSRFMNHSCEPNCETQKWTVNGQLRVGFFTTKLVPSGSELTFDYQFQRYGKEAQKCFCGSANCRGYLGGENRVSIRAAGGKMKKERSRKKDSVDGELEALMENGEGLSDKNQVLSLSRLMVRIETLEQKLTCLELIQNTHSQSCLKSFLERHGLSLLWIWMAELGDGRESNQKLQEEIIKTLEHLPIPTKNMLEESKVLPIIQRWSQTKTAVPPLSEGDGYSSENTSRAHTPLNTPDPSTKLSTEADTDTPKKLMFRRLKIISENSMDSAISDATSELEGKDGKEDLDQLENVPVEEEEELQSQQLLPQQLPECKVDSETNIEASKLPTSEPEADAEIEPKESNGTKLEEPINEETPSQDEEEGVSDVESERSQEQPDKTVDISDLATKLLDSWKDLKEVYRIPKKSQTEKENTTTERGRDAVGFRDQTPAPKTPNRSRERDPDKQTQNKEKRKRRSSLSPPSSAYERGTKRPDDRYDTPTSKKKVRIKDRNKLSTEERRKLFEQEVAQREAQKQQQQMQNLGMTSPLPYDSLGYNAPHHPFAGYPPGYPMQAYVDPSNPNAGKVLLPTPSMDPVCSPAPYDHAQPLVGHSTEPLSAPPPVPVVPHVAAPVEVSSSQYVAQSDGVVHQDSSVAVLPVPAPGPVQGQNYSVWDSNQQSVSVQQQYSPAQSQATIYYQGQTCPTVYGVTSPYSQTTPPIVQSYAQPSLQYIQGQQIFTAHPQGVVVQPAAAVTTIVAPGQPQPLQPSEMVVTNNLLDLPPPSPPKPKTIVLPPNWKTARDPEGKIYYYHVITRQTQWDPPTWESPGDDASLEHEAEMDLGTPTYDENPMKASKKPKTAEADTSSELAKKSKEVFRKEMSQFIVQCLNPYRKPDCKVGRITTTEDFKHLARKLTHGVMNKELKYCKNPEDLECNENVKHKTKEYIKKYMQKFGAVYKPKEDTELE
UniProt Q99963: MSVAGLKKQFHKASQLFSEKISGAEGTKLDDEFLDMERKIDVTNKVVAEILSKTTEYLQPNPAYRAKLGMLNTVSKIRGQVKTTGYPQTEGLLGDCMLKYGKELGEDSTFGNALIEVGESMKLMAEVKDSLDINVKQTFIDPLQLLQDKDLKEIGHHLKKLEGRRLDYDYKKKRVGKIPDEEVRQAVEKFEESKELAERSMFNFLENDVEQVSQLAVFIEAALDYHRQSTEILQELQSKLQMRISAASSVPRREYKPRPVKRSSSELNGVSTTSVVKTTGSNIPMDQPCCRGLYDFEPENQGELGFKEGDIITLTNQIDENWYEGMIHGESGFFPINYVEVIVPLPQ
UniProt Q15464: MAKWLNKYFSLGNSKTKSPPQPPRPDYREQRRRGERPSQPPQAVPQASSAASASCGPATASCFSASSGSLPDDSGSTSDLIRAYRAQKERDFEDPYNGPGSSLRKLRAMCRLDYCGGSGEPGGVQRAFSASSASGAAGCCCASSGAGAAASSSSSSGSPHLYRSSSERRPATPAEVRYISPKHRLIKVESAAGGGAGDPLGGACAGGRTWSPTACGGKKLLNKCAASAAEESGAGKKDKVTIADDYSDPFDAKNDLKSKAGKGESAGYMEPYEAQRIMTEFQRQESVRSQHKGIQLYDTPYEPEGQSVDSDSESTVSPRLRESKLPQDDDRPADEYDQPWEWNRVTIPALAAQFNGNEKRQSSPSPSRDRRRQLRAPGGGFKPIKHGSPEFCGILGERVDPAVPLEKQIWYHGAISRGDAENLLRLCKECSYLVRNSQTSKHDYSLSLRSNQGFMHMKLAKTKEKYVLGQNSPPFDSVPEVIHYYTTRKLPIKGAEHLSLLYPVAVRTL
UniProt Q9Y6D0, whole entry, looked up: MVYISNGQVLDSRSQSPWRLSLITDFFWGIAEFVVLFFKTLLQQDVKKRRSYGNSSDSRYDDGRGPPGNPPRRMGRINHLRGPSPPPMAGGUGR
UniProt Q8IW75: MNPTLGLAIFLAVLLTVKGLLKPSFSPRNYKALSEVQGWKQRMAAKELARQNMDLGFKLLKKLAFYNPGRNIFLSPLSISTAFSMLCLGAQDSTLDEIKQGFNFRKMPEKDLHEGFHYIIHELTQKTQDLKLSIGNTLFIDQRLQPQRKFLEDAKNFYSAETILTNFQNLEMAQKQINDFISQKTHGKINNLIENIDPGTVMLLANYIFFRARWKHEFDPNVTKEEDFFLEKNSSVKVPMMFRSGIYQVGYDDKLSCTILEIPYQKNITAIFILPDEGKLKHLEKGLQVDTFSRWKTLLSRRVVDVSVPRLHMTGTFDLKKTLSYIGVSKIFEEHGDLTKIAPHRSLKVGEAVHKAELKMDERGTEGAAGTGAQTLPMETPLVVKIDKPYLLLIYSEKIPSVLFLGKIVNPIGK
UniProt Q96T21: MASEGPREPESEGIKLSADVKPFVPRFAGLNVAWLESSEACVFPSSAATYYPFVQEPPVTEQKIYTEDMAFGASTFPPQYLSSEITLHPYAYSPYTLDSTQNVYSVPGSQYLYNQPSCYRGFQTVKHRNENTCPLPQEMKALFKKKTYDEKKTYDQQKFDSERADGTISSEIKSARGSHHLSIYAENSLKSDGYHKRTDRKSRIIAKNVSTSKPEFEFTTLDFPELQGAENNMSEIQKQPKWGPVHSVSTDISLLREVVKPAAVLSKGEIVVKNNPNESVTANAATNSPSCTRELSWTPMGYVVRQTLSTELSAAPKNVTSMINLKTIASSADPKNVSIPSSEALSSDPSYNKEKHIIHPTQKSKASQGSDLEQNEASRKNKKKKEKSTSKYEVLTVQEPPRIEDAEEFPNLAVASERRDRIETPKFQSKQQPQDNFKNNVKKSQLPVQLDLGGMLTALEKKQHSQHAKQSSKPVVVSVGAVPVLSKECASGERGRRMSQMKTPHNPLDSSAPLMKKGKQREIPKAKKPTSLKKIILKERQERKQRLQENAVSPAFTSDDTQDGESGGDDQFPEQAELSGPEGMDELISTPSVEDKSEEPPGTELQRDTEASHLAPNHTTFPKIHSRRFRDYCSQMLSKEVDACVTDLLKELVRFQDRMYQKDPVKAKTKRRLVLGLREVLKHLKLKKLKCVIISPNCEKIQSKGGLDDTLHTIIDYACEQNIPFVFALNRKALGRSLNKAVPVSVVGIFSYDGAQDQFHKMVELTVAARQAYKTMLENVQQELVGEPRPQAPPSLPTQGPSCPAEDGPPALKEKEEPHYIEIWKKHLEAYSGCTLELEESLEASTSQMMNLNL
UniProt Q02383: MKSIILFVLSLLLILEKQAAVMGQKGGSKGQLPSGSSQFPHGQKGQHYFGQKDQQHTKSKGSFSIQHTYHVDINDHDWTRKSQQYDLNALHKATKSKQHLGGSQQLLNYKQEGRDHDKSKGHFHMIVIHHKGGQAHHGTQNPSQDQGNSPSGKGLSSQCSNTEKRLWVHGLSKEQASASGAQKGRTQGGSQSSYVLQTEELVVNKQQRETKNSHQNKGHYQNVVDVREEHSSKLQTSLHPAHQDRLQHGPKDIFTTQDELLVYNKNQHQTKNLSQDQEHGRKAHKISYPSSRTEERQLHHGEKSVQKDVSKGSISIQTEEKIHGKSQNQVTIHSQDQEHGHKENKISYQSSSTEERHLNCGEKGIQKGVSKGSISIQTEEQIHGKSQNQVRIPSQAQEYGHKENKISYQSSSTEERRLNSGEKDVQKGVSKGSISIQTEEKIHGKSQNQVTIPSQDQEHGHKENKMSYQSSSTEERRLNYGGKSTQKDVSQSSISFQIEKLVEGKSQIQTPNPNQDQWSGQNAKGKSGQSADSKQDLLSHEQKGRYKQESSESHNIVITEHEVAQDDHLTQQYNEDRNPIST
UniProt O75635: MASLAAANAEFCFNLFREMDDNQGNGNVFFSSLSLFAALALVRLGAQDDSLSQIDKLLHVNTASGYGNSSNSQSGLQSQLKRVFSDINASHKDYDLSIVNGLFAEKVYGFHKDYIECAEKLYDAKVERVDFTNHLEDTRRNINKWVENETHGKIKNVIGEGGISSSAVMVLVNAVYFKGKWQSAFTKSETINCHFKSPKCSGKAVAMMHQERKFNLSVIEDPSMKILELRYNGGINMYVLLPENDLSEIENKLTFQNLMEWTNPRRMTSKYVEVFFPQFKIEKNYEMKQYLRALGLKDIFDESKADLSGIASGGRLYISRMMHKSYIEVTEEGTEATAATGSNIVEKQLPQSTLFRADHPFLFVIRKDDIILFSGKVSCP
UniProt P36952: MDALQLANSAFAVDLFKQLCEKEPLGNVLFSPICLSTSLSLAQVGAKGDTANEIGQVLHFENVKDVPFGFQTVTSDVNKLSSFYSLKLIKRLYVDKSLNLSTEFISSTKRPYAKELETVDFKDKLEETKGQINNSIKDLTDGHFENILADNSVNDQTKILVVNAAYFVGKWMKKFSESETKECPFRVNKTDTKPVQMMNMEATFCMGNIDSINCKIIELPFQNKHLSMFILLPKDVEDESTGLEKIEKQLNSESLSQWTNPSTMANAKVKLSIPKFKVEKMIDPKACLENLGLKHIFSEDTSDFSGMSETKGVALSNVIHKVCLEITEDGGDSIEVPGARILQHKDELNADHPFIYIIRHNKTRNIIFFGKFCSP
UniProt Q16181: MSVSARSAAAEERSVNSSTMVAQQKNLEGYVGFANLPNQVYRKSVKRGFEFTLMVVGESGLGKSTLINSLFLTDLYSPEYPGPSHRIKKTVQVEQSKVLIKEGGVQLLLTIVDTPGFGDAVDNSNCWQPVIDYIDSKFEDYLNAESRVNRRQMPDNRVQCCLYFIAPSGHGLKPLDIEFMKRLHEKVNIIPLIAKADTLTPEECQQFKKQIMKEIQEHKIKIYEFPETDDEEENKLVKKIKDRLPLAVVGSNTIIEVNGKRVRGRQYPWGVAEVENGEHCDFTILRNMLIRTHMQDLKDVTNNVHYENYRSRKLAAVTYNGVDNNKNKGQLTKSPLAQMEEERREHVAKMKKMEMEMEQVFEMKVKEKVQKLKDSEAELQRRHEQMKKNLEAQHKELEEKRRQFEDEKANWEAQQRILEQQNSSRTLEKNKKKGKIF

compound: CC1=C(C2=C(C=C1)C(=O)C3=CC=CC=C3N2CCCN)C; assay: log2 fold change, soluble protein after heating vs DMSO (PISA); higher = thermal stabilisation; K562 cells, 10 uM, 30 min; active = over 0.2 and 3.5 SD of the protein, either way, in both replicates (recomputed)
Procedure, shortened: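 K562 cells (2×10^6 cells/mL) were treated with 10 μM compound for 30 min, and aliquots were heated for 3 min over 48°C-58°C. Pooled aliquots were extracted in PBS with 0.5% NP-40 at 4°C, and the supernatant after 21,000xg for 90 min was measured by TMTpro 16plex LC-MS/MS with channel sums equalised. Reported thermal stability, relative to control samples and from duplicates, is a log2 fold change.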

Target	log2 fold change
SETD2 (UniProt Q9BYW2)	inactive: -0.098
SEPTIN10 isoform 2 (UniProt Q9P0V9)	inactive: -0.155
SH3GL3 isoform 3 (UniProt Q99963)	inactive: -0.124
SH3PXD2B (UniProt A1X283)	inactive: 0.027
SHB (UniProt Q15464)	inactive: 0.017
SELENOK (UniProt Q9Y6D0)	inactive: 0.081
SERPINA12 (UniProt Q8IW75)	inactive: 1.38
SECISBP2 (UniProt Q96T21)	inactive: 0.369
SEMG2 (UniProt Q02383)	inactive: 0.049
SFXN1 (UniProt D6RDG7)	inactive: -0.179
SERF2 (UniProt P84101)	inactive: -0.077
SERPING1 isoform 3 (UniProt P05155)	inactive: -0.085
SERPINB7 (UniProt O75635)	inactive: -0.012
SFXN4 isoform 3 (UniProt Q6P4A7)	inactive: 0
SEPTIN2 (UniProt B5MCX3)	inactive: -0.065
SERPINB5 (UniProt P36952)	inactive: 1.9
SEPTIN7 isoform 2 (UniProt Q16181)	inactive: 0.019

Rewritten as labelled records: part of the list above.
SETD2 (UniProt Q9BYW2)
  log2 fold change: inactive: -0.098
SERF2 (UniProt P84101)
  log2 fold change: inactive: -0.077
